# In the supplement of paper PMC8728848:
# The list shows a part of the results.
# B1: Wzz (Escherichia coli) (protein)
# chain: MRTWKFPSVRVMMRVENNNVSGQNHDPEQIDLIDLLVQLWRGKMTIIISVIVAIVLAIGYLAVAKEKWTSTAIITQPDVGQIAGYNNAMNVIYGQAAPKVSDLQETLIGRFSSAFSALAETLDNQEEPEKLTIEPSVKNQQLPLTVSYVGQTAEGAQMKLAQYIQQVDDKVNQELEKDLKDNIALGRKNLQDSLRTQEVVAQEQKDLRIRQIQEALQYANQAQVTKPQIQQTGEDITQDTLFLLGSEALESMIKHEATRPLVFSSNYYQTRQNLLDIDNLDVDKLDIHAYLYVMKPTLPIRRDSPKKAITLILAVLLGGMVGAGIVLGRNALRNYNAK
# Key:
# Experiment in all cases: glycan array binding signal (z-score within array); higher = stronger binding
# Settings in all cases: glycan notation: IUPAC condensed, linker removed
# GlcNAc(b1-3)Gal(b1-4)Glc = target: GlcNAc(b1-3)Gal(b1-4)Glc
# Method in brief: (§1)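 Glycan array binding is given as a within-array Z-score, which can be read as non-binding when negative. The arrays, 3228 of them, came from the Consortium for Functional Glycomics database and were retained only where the protein sequence was available. Z-scores were averaged across arrays of the same protein sequence at different concentrations or buffers and across linkers.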
# [1] = target: GlcNAc(b1-3)Gal(b1-4)GlcNAc
# Method in brief: as §1
# [2] = target: GlcNAc(b1-3)Gal(b1-4)GlcNAc(b1-2)Man(a1-3)[GlcNAc(b1-3)Gal(b1-4)GlcNAc(b1-2)Man(a1-6)]Man(b1-4)GlcNAc(b1-4)GlcNAc
# Method in brief: as §1
# [3] = target: GlcNAc(b1-3)Gal(b1-4)GlcNAc(b1-2)Man(a1-3)[GlcNAc(b1-3)Gal(b1-4)GlcNAc(b1-2)Man(a1-6)]Man(b1-4)GlcNAc(b1-4)[Fuc(a1-6)]GlcNAc
# Method in brief: as §1
# [4] = target: GlcNAc(b1-3)Gal(b1-4)GlcNAc(b1-2)[GlcNAc(b1-3)Gal(b1-4)GlcNAc(b1-6)]Man(a1-6)[GlcNAc(b1-3)Gal(b1-4)GlcNAc(b1-2)Man(a1-3)]Man(b1-4)GlcNAc(b1-4)GlcNAc
# Method in brief: as §1
# [5] = target: GlcNAc(b1-3)Gal(b1-4)GlcNAc(b1-3)Gal(b1-4)GlcNAc
# Method in brief: as §1
# [6] = target: GlcNAc(b1-3)Gal(b1-4)GlcNAc(b1-3)Gal(b1-4)GlcNAc(b1-2)Man(a1-3)[GlcNAc(b1-3)Gal(b1-4)GlcNAc(b1-3)Gal(b1-4)GlcNAc(b1-2)Man(a1-6)]Man(b1-4)GlcNAc(b1-4)GlcNAc
# Method in brief: as §1
# [7] = target: GlcNAc(b1-3)Gal(b1-4)GlcNAc(b1-3)Gal(b1-4)GlcNAc(b1-2)Man(a1-3)[GlcNAc(b1-3)Gal(b1-4)GlcNAc(b1-3)Gal(b1-4)GlcNAc(b1-2)Man(a1-6)]Man(b1-4)GlcNAc(b1-4)[Fuc(a1-6)]GlcNAc
# Method in brief: as §1
# [8] = target: GlcNAc(b1-3)Gal(b1-4)GlcNAc(b1-3)Gal(b1-4)GlcNAc(b1-2)[GlcNAc(b1-3)Gal(b1-4)GlcNAc(b1-3)Gal(b1-4)GlcNAc(b1-6)]Man(a1-6)[GlcNAc(b1-3)Gal(b1-4)GlcNAc(b1-3)Gal(b1-4)GlcNAc(b1-2)Man(a1-3)]Man(b1-4)GlcNAc(b1-4)[Fuc(a1-6)]GlcNAc
# Method in brief: as §1
# [9] = target: GlcNAc(b1-3)Gal(b1-4)GlcNAc(b1-3)Gal(b1-4)GlcNAc(b1-3)Gal(b1-4)GlcNAc(b1-2)Man(a1-3)[GlcNAc(b1-3)Gal(b1-4)GlcNAc(b1-3)Gal(b1-4)GlcNAc(b1-3)Gal(b1-4)GlcNAc(b1-2)Man(a1-6)]Man(b1-4)GlcNAc(b1-4)GlcNAc
# Method in brief: as §1
# [10] = target: GlcNAc(b1-3)Gal(b1-4)GlcNAc(b1-3)Gal(b1-4)GlcNAc(b1-3)Gal(b1-4)GlcNAc(b1-2)Man(a1-3)[GlcNAc(b1-3)Gal(b1-4)GlcNAc(b1-3)Gal(b1-4)GlcNAc(b1-3)Gal(b1-4)GlcNAc(b1-2)Man(a1-6)]Man(b1-4)GlcNAc(b1-4)[Fuc(a1-6)]GlcNAc
# Method in brief: as §1
# [11] = target: GlcNAc(b1-3)Gal(b1-4)GlcNAc(b1-3)Gal(b1-4)GlcNAc(b1-3)Gal(b1-4)GlcNAc(b1-2)[GlcNAc(b1-3)Gal(b1-4)GlcNAc(b1-3)Gal(b1-4)GlcNAc(b1-3)Gal(b1-4)GlcNAc(b1-6)]Man(a1-6)[GlcNAc(b1-3)Gal(b1-4)GlcNAc(b1-3)Gal(b1-4)GlcNAc(b1-3)Gal(b1-4)GlcNAc(b1-2)Man(a1-3)]Man(b1-4)GlcNAc(b1-4)[Fuc(a1-6)]GlcNAc
# Method in brief: as §1
# [12] = target: GlcNAc(b1-3)Gal(b1-4)GlcNAc(b1-3)Gal(b1-4)GlcNAc(b1-3)Gal(b1-4)GlcNAc(b1-3)Gal(b1-4)GlcNAc(b1-2)Man(a1-3)[GlcNAc(b1-3)Gal(b1-4)GlcNAc(b1-3)Gal(b1-4)GlcNAc(b1-3)Gal(b1-4)GlcNAc(b1-3)Gal(b1-4)GlcNAc(b1-2)Man(a1-6)]Man(b1-4)GlcNAc(b1-4)GlcNAc
# Method in brief: as §1
# [13] = target: GlcNAc(b1-3)Gal(b1-4)GlcNAc(b1-3)Gal(b1-4)GlcNAc(b1-3)Gal(b1-4)GlcNAc(b1-3)Gal(b1-4)GlcNAc(b1-2)Man(a1-3)[GlcNAc(b1-3)Gal(b1-4)GlcNAc(b1-3)Gal(b1-4)GlcNAc(b1-3)Gal(b1-4)GlcNAc(b1-3)Gal(b1-4)GlcNAc(b1-2)Man(a1-6)]Man(b1-4)GlcNAc(b1-4)[Fuc(a1-6)]GlcNAc
# Method in brief: as §1
# [14] = target: GlcNAc(b1-3)Gal(b1-4)GlcNAc(b1-3)Gal(b1-4)GlcNAc(b1-3)Gal(b1-4)GlcNAc(b1-3)Gal(b1-4)GlcNAc(b1-2)[GlcNAc(b1-3)Gal(b1-4)GlcNAc(b1-3)Gal(b1-4)GlcNAc(b1-3)Gal(b1-4)GlcNAc(b1-3)Gal(b1-4)GlcNAc(b1-6)]Man(a1-6)[GlcNAc(b1-3)Gal(b1-4)GlcNAc(b1-3)Gal(b1-4)GlcNAc(b1-3)Gal(b1-4)GlcNAc(b1-3)Gal(b1-4)GlcNAc(b1-2)Man(a1-3)]Man(b1-4)GlcNAc(b1-4)[Fuc(a1-6)]GlcNAc
# Method in brief: as §1
# [15] = target: GlcNAc(b1-3)Gal(b1-4)GlcNAc(b1-3)Gal(b1-4)GlcNAc(b1-3)GalNAc
# Method in brief: as §1
# [16] = target: GlcNAc(b1-3)Gal(b1-4)GlcNAc(b1-3)GalNAc
# Method in brief: as §1
# [17] = target: GlcNAc(b1-3)Gal(b1-4)GlcNAc(b1-3)[GlcNAc(b1-3)Gal(b1-4)GlcNAc(b1-3)]GalNAc
# Method in brief: as §1
# [18] = target: GlcNAc(b1-3)Gal(b1-4)GlcNAc(b1-6)[Gal(b1-3)]GalNAc
# Method in brief: as §1
# [19] = target: GlcNAc(b1-3)Gal(b1-4)GlcNAc(b1-6)[GlcNAc(b1-3)Gal(b1-3)]GalNAc
# Method in brief: as §1
# [20] = target: GlcNAc(b1-3)Gal(b1-4)GlcNAc(b1-6)[GlcNAc(b1-3)]Gal(b1-4)GlcNAc
# Method in brief: as §1
# GlcNAc(b1-3)GalNAc = target: GlcNAc(b1-3)GalNAc
# Method in brief: as §1
# GlcNAc(b1-3)Man = target: GlcNAc(b1-3)Man
# Method in brief: as §1
# [21] = target: GlcNAc(b1-3)[GlcNAc(b1-4)][GlcNAc(b1-6)]GlcNAc
# Method in brief: as §1
# [22] = target: GlcNAc(b1-3)[GlcNAc(b1-6)]Gal(b1-4)GlcNAc
# Method in brief: as §1
# [23] = target: GlcNAc(b1-3)[GlcNAc(b1-6)]GalNAc
# Method in brief: as §1
# [24] = target: GlcNAc(b1-4)Gal(b1-4)GlcNAc
# Method in brief: as §1
# GlcNAc(b1-4)GlcNAc = target: GlcNAc(b1-4)GlcNAc
# Method in brief: as §1
# [25] = target: GlcNAc(b1-4)GlcNAc(b1-4)GlcNAc
# Method in brief: as §1
# [26] = target: GlcNAc(b1-4)GlcNAc(b1-4)GlcNAc(b1-4)GlcNAc(b1-4)GlcNAc
# Method in brief: as §1
# [27] = target: GlcNAc(b1-4)GlcNAc(b1-4)GlcNAc(b1-4)GlcNAc(b1-4)GlcNAc(b1-4)GlcNAc
# Method in brief: as §1
# [28] = target: GlcNAc(b1-4)[GlcNAc(b1-6)]GalNAc
# Method in brief: as §1
# [29] = target: GlcNAc(b1-6)Gal(b1-4)GlcNAc
# Method in brief: as §1
# GlcNAc(b1-6)GalNAc = target: GlcNAc(b1-6)GalNAc
# Method in brief: as §1
# [30] = target: GlcNAc6S(b1-3)Gal(b1-4)GlcNAc
# Method in brief: as §1
# Kdn(a2-3)Gal(b1-3)GalNAc = target: Kdn(a2-3)Gal(b1-3)GalNAc
# Method in brief: as §1
# Kdn(a2-3)Gal(b1-3)GlcNAc = target: Kdn(a2-3)Gal(b1-3)GlcNAc
# Method in brief: as §1
binder,measurement,setting,value
B1,glycan array binding signal (z-score),GlcNAc(b1-3)Gal(b1-4)Glc,0.258
same,glycan array binding signal (z-score),[1],-0.125
same,glycan array binding signal (z-score),[2],-0.684
same,glycan array binding signal (z-score),[3],0.036
same,glycan array binding signal (z-score),[4],0.272
same,glycan array binding signal (z-score),[5],-0.252
same,glycan array binding signal (z-score),[6],0.124
same,glycan array binding signal (z-score),[7],-0.089
same,glycan array binding signal (z-score),[8],-0.222
same,glycan array binding signal (z-score),[9],0.265
same,glycan array binding signal (z-score),[10],-0.653
same,glycan array binding signal (z-score),[11],-0.191
same,glycan array binding signal (z-score),[12],-0.293
same,glycan array binding signal (z-score),[13],-0.384
same,glycan array binding signal (z-score),[14],0.478
same,glycan array binding signal (z-score),[15],0.801
same,glycan array binding signal (z-score),[16],0.061
same,glycan array binding signal (z-score),[17],-0.198
same,glycan array binding signal (z-score),[18],-0.34
same,glycan array binding signal (z-score),[19],-0.084
same,glycan array binding signal (z-score),[20],0.333
same,glycan array binding signal (z-score),GlcNAc(b1-3)GalNAc,-0.512
same,glycan array binding signal (z-score),GlcNAc(b1-3)Man,0.005
same,glycan array binding signal (z-score),[21],-0.524
same,glycan array binding signal (z-score),[22],0.869
same,glycan array binding signal (z-score),[23],-0.384
same,glycan array binding signal (z-score),[24],-0.166
same,glycan array binding signal (z-score),GlcNAc(b1-4)GlcNAc,0.05
same,glycan array binding signal (z-score),[25],-0.438
same,glycan array binding signal (z-score),[26],0.458
same,glycan array binding signal (z-score),[27],0.704
same,glycan array binding signal (z-score),[28],-0.637
same,glycan array binding signal (z-score),[29],-0.244
same,glycan array binding signal (z-score),GlcNAc(b1-6)GalNAc,-0.259
same,glycan array binding signal (z-score),[30],0.081
same,glycan array binding signal (z-score),Kdn(a2-3)Gal(b1-3)GalNAc,0.679
same,glycan array binding signal (z-score),Kdn(a2-3)Gal(b1-3)GlcNAc,1.36

# Part of the list above, tab-delimited.
binder	measurement	setting	value
B1	glycan array binding signal (z-score)	[1]	-0.125
same	glycan array binding signal (z-score)	[2]	-0.684
same	glycan array binding signal (z-score)	[3]	0.036
